From paper PMC8553094 come the findings set out here.

Results are given in words; binding and its absence hold for the method and conditions named. Binding seen in cells or lysates may run through a third protein. Some results given as binding are weak or reduced against the parent protein; the word gives no strength. Sequences can lack the tags named with a protein.

In assay [1] the target is Flag-Wtip (Xenopus) (UniProt A9LS46). Put plainly: co-IP; Xenopus embryos coinjected with RNAs (300 pg each) and lysed at stage 11 (1% Triton X-100, 50 mM NaCl, 50 mM Tris-HCl pH 7.6, 1 mM EDTA); anti-Flag M2 agarose beads overnight at 4°C; immunoblot for Flag and GFP. For orientation: Immunoblotting shows a protein as a band on a membrane.
The target in assay [2] is T1, Flag-WtipN (Xenopus) (UniProt A9LS46).
T1 sequence: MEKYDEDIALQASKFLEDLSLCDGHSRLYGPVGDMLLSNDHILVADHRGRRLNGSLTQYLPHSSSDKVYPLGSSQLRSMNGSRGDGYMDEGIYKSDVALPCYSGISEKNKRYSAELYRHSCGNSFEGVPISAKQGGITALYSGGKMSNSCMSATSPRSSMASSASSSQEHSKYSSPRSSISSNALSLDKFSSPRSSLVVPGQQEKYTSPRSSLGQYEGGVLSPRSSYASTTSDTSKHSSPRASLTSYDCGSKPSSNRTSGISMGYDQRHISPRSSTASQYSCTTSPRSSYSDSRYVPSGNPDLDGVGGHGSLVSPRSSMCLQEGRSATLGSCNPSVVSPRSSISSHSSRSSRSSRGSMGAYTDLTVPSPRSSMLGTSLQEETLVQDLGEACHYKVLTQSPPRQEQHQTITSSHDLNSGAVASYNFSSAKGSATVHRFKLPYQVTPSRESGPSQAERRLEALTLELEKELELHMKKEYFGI
The assay is described as above.

B1: GFP-hSSX2IP (protein, UniProt Q9Y2D8 1-614)
chain: MGDWMTVTDPGLSSESKTISQYTSETKMSPSSLYSQQVLCSSIPLSKNVHSFFSAFCTEDNIEQSISYLDQELTTFGFPSLYEESKGKETKRELNIVAVLNCMNELLVLQRKNLLAQENVETQNLKLGSDMDHLQSCYSKLKEQLETSRREMIGLQERDRQLQCKNRNLHQLLKNEKDEVQKLQNIIASRATQYNHDMKRKEREYNKLKERLHQLVMNKKDKKIAMDILNYVGRADGKRGSWRTGKTEARNEDEMYKILLNDYEYRQKQILMENAELKKVLQQMKKEMISLLSPQKKKPRERVDDSTGTVISDVEEDAGELSRESMWDLSCETVREQLTNSIRKQWRILKSHVEKLDNQVSKVHLEGFNDEDVISRQDHEQETEKLELEIQQCKEMIKTQQQLLQQQLATAYDDDTTSLLRDCYLLEEKERLKEEWSLFKEQKKNFERERRSFTEAAIRLGLERKAFEEERASWLKQQFLNMTTFDHQNSENVKLFSAFSGSSDWDNLIVHSRQPQKKPHSVSNGSPVCMSKLTKSLPASPSTSDFCQTRSCISEHSSINVLNITAEEIKPNQVGGECTNQKWSVASRPGSQEGCYSGCSLSYTNSHVEKDDLP
For the molecule B1, the binding result in assay [1] and in assay [2] was “binds” throughout.
